Data on three molecules can be found in article PMC10620153, “ARF1 prevents aberrant type I interferon induction by regulating STING activation and recycling” (Nature Communications, 2023).

By UniProt entry, the sequences of proteins in these tests, tags left out. Where a name states a change or a piece, a line headed by the entry shows the natural chain unless it says otherwise.
UniProt P84077: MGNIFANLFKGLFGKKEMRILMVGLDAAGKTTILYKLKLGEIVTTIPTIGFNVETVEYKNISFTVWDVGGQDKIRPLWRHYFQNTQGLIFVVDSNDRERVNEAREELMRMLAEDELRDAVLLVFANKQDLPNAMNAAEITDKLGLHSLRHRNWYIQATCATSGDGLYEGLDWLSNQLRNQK

These are yes or no findings as the source states them, for the method shown. Binding seen in cells or lysates may run through a third protein. Some entries that bind do so weakly or less than the wild type.

Experiment [1] addresses human ARF1 R99C, myc-FLAG tagged (pCMV6-hARF1-R99C-myc-FLAG) (human) (UniProt P84077). The experiment is described as follows: co-IP; dimerization assay: HEK293T co-transfected with ARF1-myc-FLAG and ARF1-Tag-RFP (both WT or both R99C); lysates on anti-FLAG M2 magnetic beads 4 h at 4 °C; five washes with transmembrane lysis buffer; immunoblot. For orientation: In western blotting, separated proteins are transferred to a membrane and probed.

Experiment [2] has as its target human ARF1 wild type, myc-FLAG tagged (pCMV6-hARF1-myc-FLAG) (human) (UniProt P84077). The description is as above.
Experiment [3] has the same target. The experiment in a line: co-IP; HEK293T lysates 48 h after transfection with FLAG-ARF1 WT, R99C or vector; anti-FLAG M2 magnetic beads 4 h at 4 °C; five washes with transmembrane lysis buffer (300 mM salt); blot with anti-COPB.
The target of experiment [4] is human ARF1 R99C, myc-FLAG tagged (pCMV6-hARF1-R99C-myc-FLAG) (human) (UniProt P84077). The description is as above.

As for “human ARF1 R99C, myc-FLAG tagged (pCMV6-hARF1-R99C-myc-FLAG) (from UniProt P84077 1-181)”, the binding entry in experiment [1] is given as “binds”.

“human ARF1 wild type, myc-FLAG tagged (pCMV6-hARF1-myc-FLAG) (from UniProt P84077 1-181)”: the binding result in experiment [2] is “binds”.

B1: COPB1 (natural protein, human (endogenous in HEK293T), UniProt P53618 1-953, looked up)
chain: MTAAENVCYTLINVPMDSEPPSEISLKNDLEKGDVKSKTEALKKVIIMILNGEKLPGLLMTIIRFVLPLQDHTIKKLLLVFWEIVPKTTPDGRLLHEMILVCDAYRKDLQHPNEFIRGSTLRFLCKLKEAELLEPLMPAIRACLEHRHSYVRRNAVLAIYTIYRNFEHLIPDAPELIHDFLVNEKDASCKRNAFMMLIHADQDRALDYLSTCIDQVQTFGDILQLVIVELIYKVCHANPSERARFIRCIYNLLQSSSPAVKYEAAGTLVTLSSAPTAIKAAAQCYIDLIIKESDNNVKLIVLDRLIELKEHPAHERVLQDLVMDILRVLSTPDLEVRKKTLQLALDLVSSRNVEELVIVLKKEVIKTNNVSEHEDTDKYRQLLVRTLHSCSVRFPDMAANVIPVLMEFLSDNNEAAAADVLEFVREAIQRFDNLRMLIVEKMLEVFHAIKSVKIYRGALWILGEYCSTKEDIQSVMTEIRRSLGEIPIVESEIKKEAGELKPEEEITVGPVQKLVTEMGTYATQSALSSSRPTKKEEDRPPLRGFLLDGDFFVAASLATTLTKIALRYVALVQEKKKQNSFVAEAMLLMATILHLGKSSLPKKPITDDDVDRISLCLKVLSECSPLMNDIFNKECRQSLSHMLSAKLEEEKLSQKKESEKRNVTVQPDDPISFMQLTAKNEMNCKEDQFQLSLLAAMGNTQRKEAADPLASKLNKVTQLTGFSDPVYAEAYVHVNQYDIVLDVLVVNQTSDTLQNCTLELATLGDLKLVEKPSPLTLAPHDFANIKANVKVASTENGIIFGNIVYDVSGAASDRNCVVLSDIHIDIMDYIQPATCTDAEFRQMWAEFEWENKVTVNTNMVDLNDYLQHILKSTNMKCLTPEKALSGYCGFMAANLYARSIFGEDALANVSIEKPIHQGPDAAVTGHIRIRAKSQGMALSLGDKINLSQKKTSI
notes: Coatomer subunit beta (COPB1), component of the COPI complex, endogenous in HEK293T cells; detected in the co-IP with anti-COPB (Abcam Ab2899); The co-IP names the protein only as COPB; also called beta-COP; source: endogenous, HEK293T lysate
Consider B1, for which the binding entry in experiment [3] and in experiment [4] was “binds” each time.
